Results from PubChem BioAssay AID493014 (National Center for Advancing Translational Sciences (NCATS), 2011).
Among all 340,000 compounds or so, about 170 (0.05%) were called active. Inconclusive results, whose numbers are uncertain, are shown with a selection of clear calls. Calls follow the shape of the dose curve; as a rule, active = well fitted inhibition curve with a large enough effect in the signal ratio, with a control signal flat (not every such curve was filed as active); inconclusive = small, poorly fitted or top-dose-only effect, or effect the other way, or a change in a side signal; inactive = flat fitted curve, though single readings scatter; the % refers to the signal ratio. Potencies beside an inconclusive call are fits to weak or partial responses and may not hold up.

experiment: qHTS Assay to Find Inhibitors of Chronic Active B-Cell Receptor Signaling; details: ABC-DLBCL IkBa-CBG/CBR reporter, luminescence ratio (green luciferase fused to IkBa over red control in TMD8 lymphoma cells), 4 h; activity change, negative = inhibition: at 46.1 µM (top of the series);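 as to activity change, negative = inhibition: plate controls were basal doxycycline-induced cells for no effect and cells given 10 µM MG132 for full effect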
How it was run: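 TMD8 human ABC-DLBCL cells with doxycycline-inducible IκBα–green luciferase fusion and unfused red luciferase, in 0.5% FBS medium; compounds up to 46 uM, 4 h at 37C. Green/red luminescence ratio, filter-overlap corrected, fitted to concentration-response curves.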
Potency is read from the fitted curve at half-maximal effect.

SMILES	activity change, negative = inhibition	Potency
CCN(CC)CCn1c2c(c(SCC(=O)Nc3ccc4c(c3)OCCO4)nc1=O)CCCC2	inconclusive: -29%	–
C/C(=N\NC(=O)c1ccc(CSc2nncn2C)cc1)c1ccc2ccccc2c1	inconclusive: 1.66%	–
COc1ccc(N2CCN(C(=O)CCCN3C(=O)c4cccc5cccc(c45)C3=O)CC2)cc1	–	inconclusive: 11.2 µM [rising, partial curve, poor fit]
CC(=O)Nc1cccc(-c2nc3ccccc3c(=O)o2)c1	–	inconclusive: 23.1 µM [falling, partial curve]
CCn1nc(C)c(C(=O)Nc2cc(Oc3cc(C)cc(C)c3)cc([N+](=O)[O-])c2)c1C	inconclusive: -1.13%	–
Cc1ccc(CNC(=O)CS(=O)Cc2nc(-c3cccs3)oc2C)cc1 (configuration not stated)	inactive	–
Cc1ccc(CSc2ncnc3onc(C)c23)cc1	inconclusive: 4.03%	–
Cc1nc(NCCc2ccc(F)cc2)c2nnn(Cc3ccccc3)c2n1	inconclusive: -4.96%	–
O=C1CCCC(O)=C1N=Nc1c(Cl)cc(Cl)cc1Cl	inconclusive: 4.63%	–
O=C(CNC(=O)c1ccco1)OCc1cccc(Cl)c1	inconclusive: 6.88%	–
O=S(=O)(c1ccc(N2CCN(Cc3ccccc3)CC2)nc1)N1CCCC1	inactive	–
CCOC(=O)C(=Cc1c[nH]c2ccc(S(=O)(=O)N(C)C)cc12)C(=O)OCC	–	inconclusive: 5.01 µM [falling, partial curve, poor fit]
CCCC(=O)Nc1ccccc1-c1nnn(CC(=O)Nc2ccc(OCC)cc2)n1	inactive	–
CCCCCCn1c(=O)[nH]c2nc3cc(N)ccc3nc2c1=O	inconclusive: 9.31%	–
O=C(COc1ccccc1[N+](=O)[O-])N(Cc1ccccc1)c1ccccn1	inactive	–
CCCCc1ccc(Nc2ncnc3c2cnn3-c2ccc(C)cc2)cc1	inactive	–
CCc1c(C)nc(SCC(=O)NNC(=O)Cc2ccc(OC)cc2)[nH]c1=O	inconclusive: -21.4%	–
O=C(NN1C(=O)C2C3C=CC(C4CC34)C2C1=O)c1ccccc1Cl (configuration not stated)	inconclusive: -12.4%	–
CN(C)N1C(N)=C(C#N)C(c2cccc(Cl)c2)C2=C1CCCC2=O (configuration not stated)	inconclusive: 0.594%	–
COc1cccc(CNc2nc3ccccc3n2CCN2CCCCC2)c1OC	inactive	–
CC1(C)C2CC=C(/C=N/NC(=O)c3ccc(O)cc3)C1C2 (configuration not stated)	–	inconclusive: 23.1 µM [rising, single point]
CCOc1ccc(S(=O)(=O)N(CC(=O)NN=C2CCN(C)CC2)c2ccc(C)cc2)cc1	inconclusive: -14.4%	–
Cc1nn(-c2ccccc2)c(Cl)c1/C=N\NC(=O)c1cncc(Br)c1	inconclusive: -14.8%	–
CCCc1noc2c1/C(=N\O)CCC2	inconclusive: -20.5%	–
c1ccc(-c2c3ccccc3nc3[nH]c4ccccc4c23)cc1	inconclusive: 9.95%	–
Cc1ccc(C2C3=C(CCCC3=O)N=C3c4ccccc4C(=O)C32)cc1 (configuration not stated)	inconclusive: -0.259%	–

SMILES	activity change, negative = inhibition	Potency
CN(c1ccccc1)c1ccc(/C=N/N2CCOCC2)cc1	inconclusive: 0.155%	–
Cc1ccccc1S(=O)(=O)Oc1ccccc1C(=O)Oc1ccccc1	inactive	–
COc1ccc(NC(=O)Cn2nnc(C(N)=O)c2N)c(OC)c1	–	inconclusive: 14.1 µM [falling, single point]
COc1cccc(CNC(=O)Cc2ccc(-c3ccccc3)cc2)c1	–	inconclusive: 14.1 µM [falling, partial curve, poor fit]
COc1ccc(C)cc1-n1c(-c2ccncc2)n[nH]c1=S	inactive	–
CC1(C)CC(=O)c2c(oc3cc(O)c(O)cc23)C1	inactive	–
Cc1ccc(-n2ncc(Cl)c2C(=O)NCc2ccccc2)cc1	inconclusive: -0.436%	–
O=C(N/N=C/c1ccc[nH]1)c1cc(-c2cccs2)nc2ccccc12	inconclusive: 6.08%	–
COc1ccc(C(=O)C[n+]2cn(C(F)F)c3ccccc32)c(F)c1	inconclusive: 1.29%	–
C=CCn1c(NCc2ccc3c(c2)OCO3)nc2ccccc21	–	inconclusive: 0.794 µM [falling, full curve, poor fit]
Cc1nc2ccc(-c3ccccc3)cc2o1	inconclusive: 2.77%	–
CC(C)(C)OC(=O)N1CCC[C@H]1c1nnc(SCc2c(Cl)cccc2Cl)o1	inconclusive: -12%	–
CC1=CC(=O)C(C(C)C)=C/C1=N/OC(=O)c1cccc([N+](=O)[O-])c1	–	inconclusive: 20.6 µM [falling, partial curve]
Cc1cc(Cl)ccc1OCC(=O)NC(=S)Nc1ccc(Cl)cn1	inactive	–
CC1(C)CC(=O)C2=C(C1)N(c1ccc(F)cc1)C(=O)C2(NC(=O)c1ccccc1F)C(F)(F)F (configuration not stated)	inactive	–
CCOc1ccc(CCNC(=O)c2ccc3c(c2)N(Cc2cccc(Cl)c2)C(=O)c2ccccc2S3(=O)=O)cc1OCC	–	inconclusive: 3.98 µM [rising, full curve, poor fit]
Cn1cc([N+](=O)[O-])c(C(=O)Nc2nccs2)n1	–	inconclusive: 10 µM [falling, partial curve]
CCOc1ccc(NC(=O)CN2CCN(CC(=O)Nc3cccc(F)c3)CC2)cc1	inactive	–
CCc1cc(OCCN(C)C)ccc1Cl	inactive	–
CCCNC(=O)OC[C@H]1O[C@H](CCO/N=C(\C)CCN2CCc3nc(-c4ccccc4)c(-c4ccccc4)cc3C2)C=C[C@@H]1Oc1ccc(OC)cc1	inconclusive: -5.08%	–
Cc1ccc(C(c2nnnn2C(C)(C)C)N2CCc3ccccc3C2)cc1 (configuration not stated)	inconclusive: 12.6%	–
CC(C)(C)c1ccc(C(=O)Nc2ccc([N+](=O)[O-])cn2)cc1	inconclusive: 4.64%	–
CCOc1ccc(CCNC(=O)Cn2c(=O)oc3ccccc32)cc1OCC	–	inconclusive: 14.6 µM [falling, partial curve, poor fit]
COc1ccc(OC)c(/C=N/NC(=O)c2c(C)nc3ccc(C)cn23)c1	inactive	–
Cc1ccc(NC(=O)c2ccc(F)c(S(=O)(=O)N3CCc4ccccc4C3)c2)cc1F	inactive	–
NS(=O)(=O)c1cccc(NC(=O)COc2ncnc3c2cnn3-c2ccccc2)c1	inconclusive: 15.3%	–

As a working copy, 3 of the compounds above:
SMILES	activity change, negative = inhibition	Potency
O=C(N/N=C/c1ccc[nH]1)c1cc(-c2cccs2)nc2ccccc12	inconclusive: 6.08%	–
COc1ccc(C(=O)C[n+]2cn(C(F)F)c3ccccc32)c(F)c1	inconclusive: 1.29%	–
C=CCn1c(NCc2ccc3c(c2)OCO3)nc2ccccc21	–	inconclusive: 0.794 µM [falling, full curve, poor fit]
